Some entries share one result that the patent states for a list of compounds.
Target: T1, AhR (Homo sapiens, UniProt P35869)
T1 sequence (P35869 11-848): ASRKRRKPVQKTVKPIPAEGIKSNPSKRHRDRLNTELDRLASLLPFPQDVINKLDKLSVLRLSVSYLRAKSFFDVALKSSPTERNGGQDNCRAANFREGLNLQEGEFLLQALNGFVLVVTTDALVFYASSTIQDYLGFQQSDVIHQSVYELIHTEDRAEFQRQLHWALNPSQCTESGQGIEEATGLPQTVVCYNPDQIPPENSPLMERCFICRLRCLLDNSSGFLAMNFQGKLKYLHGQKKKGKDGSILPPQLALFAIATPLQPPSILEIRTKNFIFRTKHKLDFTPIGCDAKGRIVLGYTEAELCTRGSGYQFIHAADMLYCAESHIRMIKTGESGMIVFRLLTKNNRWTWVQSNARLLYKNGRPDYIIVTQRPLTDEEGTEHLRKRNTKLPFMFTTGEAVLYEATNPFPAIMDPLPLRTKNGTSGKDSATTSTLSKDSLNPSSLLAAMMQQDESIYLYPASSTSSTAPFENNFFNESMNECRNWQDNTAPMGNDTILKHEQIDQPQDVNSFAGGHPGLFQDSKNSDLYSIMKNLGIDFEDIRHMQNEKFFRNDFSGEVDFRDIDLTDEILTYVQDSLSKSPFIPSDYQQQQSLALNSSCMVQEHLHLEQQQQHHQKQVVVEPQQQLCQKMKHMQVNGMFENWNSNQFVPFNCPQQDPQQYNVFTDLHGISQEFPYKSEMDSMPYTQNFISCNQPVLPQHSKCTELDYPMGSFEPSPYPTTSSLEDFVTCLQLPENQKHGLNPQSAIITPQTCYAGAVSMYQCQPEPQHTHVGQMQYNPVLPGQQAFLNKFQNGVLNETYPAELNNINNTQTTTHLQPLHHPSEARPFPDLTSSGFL
Test: AhR target gene expression by RT-PCR in A549, Calu-3, CaCo-2 and HepG32 cell lines
Type: cell-based
Set-up: endogenous in cells; host or cells: HepG2, A549, Calu-3, CaCo-2
Description: ITE and FICZ are reference AhR agonists. Assays were performed at 4 hours post-incubation.
To further characterize the AhR agonistic potential of 1ME3CA, the ability of 3-IAld and 1ME3CA to activate target genes downstream AhR (Cyp1a1, Cyp2a1 and AhRR) in the A549 cell line derived from adenocarcinomic human alveolar basal epithelial cells, in the Calu-3 cell line derived from adenocarcinomic human bronchial epithelial cells, in the CaCo-2 cell line derived from human colon carcinoma and in the […] human liver cancer cell line was comparatively assessed. Cells were exposed to 1, 10, 100 and 1000 µM of either molecules or DMSO for 4 hours or overnight (on) at 37° C. before being assessed for the expression of the above-mentioned genes by RT-PCR.

SMILES: O=Cc1c[nH]c2ccccc12 [3-IAld, 1H-indole-3-carbaldehyde]
- optimal range of concentration: 10 to 100 µM
- time of exposure at which activity occurred (maintained thereafter): ≤ 4 h
